For this assay, the target named is human IRE1β K547A, 3x HA-tagged (pCAG-hIRE1β-HA K547A) (human). As to the kind of experiment: co-IP; HEK293T cells co-transfected with Flag-tagged model protein and HA-tagged IRE1; lysis in TNE buffer (10 mM Tris-HCl pH 7.5, 1% NP-40, 150 mM NaCl, 1 mM EDTA); anti-HA (12CA5) immunoprecipitation on protein G Sepharose; anti-Flag Western blot. Background: Immunoblotting shows a protein as a band on a membrane.

These are yes or no findings as the source states them, for the method shown. Binding seen in cells or lysates may run through a third protein. Binding can be weak; no strength is given. Where a sequence is shown, tags or fusion partners need not be part of it.

B1: mouse Amy1, 3x Flag-tagged (pCAX-mAmy1-Flag) (protein, UniProt P00687 16-511)
chain: QYDPHTQYGRTAIVHLFEWRWVDIAKECERYLAPNGFAGVQVSPPNENIVVHSPSRPWWERYQPISYKICSRSGNEDEFRDMVNRCNNVGVRIYVDAVINHMCGVGAQAGQSSTCGSYFNPNNRDFPGVPYSGFDFNDGKCRTASGGIENYQDAAQVRDCRLSGLLDLALEKDYVRTKVADYMNHLIDIGVAGFRLDASKHMWPGDIKAILDKLHNLNTKWFSQGSRPFIFQEVIDLGGEAVSSNEYFGNGRVTEFKYGAKLGKVMRKWDGEKMSYLKNWGEGWGLMPSDRALVFVDNHDNQRGHGAGGASILTFWDARLYKMAVGFMLAHPYGFTRVMSSYYWPRNFQNGKDVNDWVGPPNNNGKTKEVSINPDSTCGNDWICEHRWRQIRNMVAFRNVVNGQPFANWWDNDSNQVAFGRGNKGFIVFNNDDWALSETLQTGLPAGTYCDVISGDKVDGNCTGIKVYVGNDGKAHFSISNSAEDPFIAIHAESKI
Take B1: the binding result is reported as “binds”.

The values are drawn from article PMC3517461.
